Assay results reported in patent publication US5444083A, “Pyrrolidine compound and pharmaceutical use” (Eisai Co., Ltd., priority 1989, dated 1995).
Counter-ions that a name gives are not always drawn. At least one read-out could not be matched to a standard name with certainty.

Tested on: anesthetized dogs
Test: Action cardiohemodynamics in anesthetized dogs
Assay type: in vivo, Mongrel dogs
Settings: at duodenum, administered amount 1.0
Experimental: 2. Action cardiohemodynamics in anesthetized dogs
Mongrel dogs of about 10 kg were anesthetized with the intravenous administration of 20 mg/kg of thiopental sodium. They were then treated by introducing oxygen gas, nitrous oxide gas and enflurane in combination through an endotracheal tube inserted thereinto to conduct artificial respiration and with an Acoma artificial respirator ARF-850E (trademark) and an Acoma anesthesia apparatus EM-A (trademark) to keep the anesthesia still effective. The aortic pressure and the internal pressure of the left ventricle were determined with a micro-tip catheter pressure transducers, MPC-500, tradename of Miller, inserted at the femoral arteries. The renal blood […] was determined by exposing by laparotomy the renal artery to a probe of an electromagnetic blood flowmeter, MFV-2100, tradename of Nihon Kohden Corp. Results are caught with a polygraph system, RM-6000, tradename of Nihon Kohden Corp.
The specimen was dissolved in a 0.9% saline solution and administered at the brachial vein through a catheter inserted thereinto. When the administration was made at the duodenum, the duodenum was exposed by the median incision to a catheter inserted thereinto. Results are shown in terms of an increase in percent of the renal blood flow and a decrease in percent of the mean blood pressure when the test compound was administered.

Row | SMILES | decrease of mean blood pressure
1 | Cc1ccsc1[C@@H]1CNC[C@H]1c1ccc(O)c(O)c1 (relative stereo) [Compound E, trans-3-(3,4-dihydroxyphenyl)-4-(3-methylthienyl)pyrrolidine hydrobromide] | 13%
2 | Oc1ccc([C@@H]2CNC[C@H]2Cc2cc(F)cc(F)c2O)cc1O (relative stereo) [Compound K, trans-3-(3,5-difluoro-2-hydroxyphenyl)-methyl-4-(3,4-dihydroxyphenyl)-pyrrolidine] | 11%
